PubChem BioAssay AID1224830, NIAID – 2016

Purpose: 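Host factors that control LPS-induced TNF expression in human macrophages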 (primary screen)
Cell system: human THP-1 monocytic leukaemia cells, TNF dual-luciferase reporter clone, PMA-differentiated to macrophage-like cells
Reagents: siRNA pool against human genes, 50 nM
Duration: LPS for 4 h, given about 3 days after siRNA transfection
Conditions: bacterial LPS (TLR4 ligand), 10 ng/ml
Measurement: 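Ratio of firefly to renilla light, scaled to the plate median and expressed as a robust z-score per replicate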
Direction: TNF reporter robust z-score: higher = stronger TNF reporter response to LPS
Hit rule: 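Each well counts as active if its z-score is over 2.8 or under -1.5; controls are left without a call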
This is a random part of about 18,000 reagents tested. About 2,900 of all reagents (16%) count as active. 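Calls are made per well; low scores hint the gene aids the LPS response, high scores that it dampens it.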 Repeated entries: four replicate wells of each siRNA pool.

TNF reporter robust z-score	outcome	gene
0.1	inactive	CC2D1B (coiled-coil and C2 domain containing 1B)
0.46	inactive	CC2D1B (coiled-coil and C2 domain containing 1B)
-0.13	inactive	CC2D1B (coiled-coil and C2 domain containing 1B)
0.39	inactive	CC2D1B (coiled-coil and C2 domain containing 1B)
-0.46	inactive	APOD (apolipoprotein D)
1.25	inactive	APOD (apolipoprotein D)
0.18	inactive	APOD (apolipoprotein D)
1.09	inactive	APOD (apolipoprotein D)
0.5	inactive	PCDH20 (protocadherin 20)
1.49	inactive	PCDH20 (protocadherin 20)
-0.4	inactive	PCDH20 (protocadherin 20)
1.46	inactive	PCDH20 (protocadherin 20)
0.31	inactive	APPBP2 (amyloid beta precursor protein binding protein 2)
-0.19	inactive	APPBP2 (amyloid beta precursor protein binding protein 2)
0.12	inactive	APPBP2 (amyloid beta precursor protein binding protein 2)
1.18	inactive	APPBP2 (amyloid beta precursor protein binding protein 2)
1.65	inactive	SOHLH1
2.68	inactive	SOHLH1
3.86	active	SOHLH1
2.43	inactive	SOHLH1
-1.31	inactive	KLHDC8B (kelch domain containing 8B)
-0.44	inactive	KLHDC8B (kelch domain containing 8B)
-0.19	inactive	KLHDC8B (kelch domain containing 8B)
-0.77	inactive	KLHDC8B (kelch domain containing 8B)
-1.87	active	CFAP95 (cilia and flagella associated protein 95)
1.03	inactive	CFAP95 (cilia and flagella associated protein 95)
0.18	inactive	CFAP95 (cilia and flagella associated protein 95)
0.69	inactive	CFAP95 (cilia and flagella associated protein 95)
-0.37	inactive	APOE (apolipoprotein E)
0.31	inactive	APOE (apolipoprotein E)
0.1	inactive	APOE (apolipoprotein E)
2.19	inactive	APOE (apolipoprotein E)
1.27	inactive	SPTY2D1 (SPT2 chromatin protein domain containing 1)
0.32	inactive	SPTY2D1 (SPT2 chromatin protein domain containing 1)
0.62	inactive	SPTY2D1 (SPT2 chromatin protein domain containing 1)
2.1	inactive	SPTY2D1 (SPT2 chromatin protein domain containing 1)
-1.35	inactive	TVP23C (trans-golgi network vesicle protein 23 homolog C)
-1.27	inactive	TVP23C (trans-golgi network vesicle protein 23 homolog C)
-1.16	inactive	TVP23C (trans-golgi network vesicle protein 23 homolog C)
-1.28	inactive	TVP23C (trans-golgi network vesicle protein 23 homolog C)
-1.04	inactive	SLC39A1
0.31	inactive	SLC39A1
-0.33	inactive	SLC39A1
-0.66	inactive	SLC39A1
0.7	inactive	ITPKB (inositol-trisphosphate 3-kinase B)
1.21	inactive	ITPKB (inositol-trisphosphate 3-kinase B)
3.6	active	ITPKB (inositol-trisphosphate 3-kinase B)
2.67	inactive	ITPKB (inositol-trisphosphate 3-kinase B)
6.73	active	ISL1 (ISL LIM homeobox 1)
0.35	inactive	ISL1 (ISL LIM homeobox 1)
-1.06	inactive	ISL1 (ISL LIM homeobox 1)
-0.33	inactive	ISL1 (ISL LIM homeobox 1)
-0.68	inactive	FAM3D (FAM3 metabolism regulating signaling molecule D)
-0.04	inactive	FAM3D (FAM3 metabolism regulating signaling molecule D)
0.36	inactive	FAM3D (FAM3 metabolism regulating signaling molecule D)
-0.45	inactive	FAM3D (FAM3 metabolism regulating signaling molecule D)
-1.18	inactive	HPX (hemopexin)
-1.28	inactive	HPX (hemopexin)
-1.35	inactive	HPX (hemopexin)
-1.32	inactive	HPX (hemopexin)
0.36	inactive	NSMAF (neutral sphingomyelinase activation associated factor)
0	inactive	NSMAF (neutral sphingomyelinase activation associated factor)
-0.25	inactive	NSMAF (neutral sphingomyelinase activation associated factor)
0.06	inactive	NSMAF (neutral sphingomyelinase activation associated factor)
-1.82	active	IK (IK cytokine)
-1.29	inactive	IK (IK cytokine)
-0.98	inactive	IK (IK cytokine)
-1.44	inactive	IK (IK cytokine)
0.35	inactive	ATAD3B (ATPase family AAA domain containing 3B)
-0.04	inactive	ATAD3B (ATPase family AAA domain containing 3B)
-0.16	inactive	ATAD3B (ATPase family AAA domain containing 3B)
1.23	inactive	ATAD3B (ATPase family AAA domain containing 3B)
0.47	inactive	TKFC (triokinase and FMN cyclase)
-0.33	inactive	TKFC (triokinase and FMN cyclase)
0.18	inactive	TKFC (triokinase and FMN cyclase)
0.03	inactive	TKFC (triokinase and FMN cyclase)
0.12	inactive	ATXN2L (ataxin 2 like)
-0.21	inactive	ATXN2L (ataxin 2 like)
-0.14	inactive	ATXN2L (ataxin 2 like)
0.29	inactive	ATXN2L (ataxin 2 like)
-0.16	inactive	NCR1 (natural cytotoxicity triggering receptor 1)
0.08	inactive	NCR1 (natural cytotoxicity triggering receptor 1)
0.17	inactive	NCR1 (natural cytotoxicity triggering receptor 1)
0.29	inactive	NCR1 (natural cytotoxicity triggering receptor 1)
0.37	inactive	IGFBP1 (insulin like growth factor binding protein 1)
-0.92	inactive	IGFBP1 (insulin like growth factor binding protein 1)
-1.24	inactive	IGFBP1 (insulin like growth factor binding protein 1)
-0.79	inactive	IGFBP1 (insulin like growth factor binding protein 1)
0.7	inactive	ARHGAP18 (Rho GTPase activating protein 18)
-1.07	inactive	ARHGAP18 (Rho GTPase activating protein 18)
-1.01	inactive	ARHGAP18 (Rho GTPase activating protein 18)
-0.11	inactive	ARHGAP18 (Rho GTPase activating protein 18)
0.52	inactive	APOC1 (apolipoprotein C1)
0.13	inactive	APOC1 (apolipoprotein C1)
-0.45	inactive	APOC1 (apolipoprotein C1)
0.7	inactive	APOC1 (apolipoprotein C1)
-0.71	inactive	IFT46 (intraflagellar transport 46)
-1.57	active	IFT46 (intraflagellar transport 46)
-0.79	inactive	IFT46 (intraflagellar transport 46)
0.15	inactive	IFT46 (intraflagellar transport 46)
-0.04	inactive	GPN3 (GPN-loop GTPase 3)
1.15	inactive	GPN3 (GPN-loop GTPase 3)
1.51	inactive	GPN3 (GPN-loop GTPase 3)
2.42	inactive	GPN3 (GPN-loop GTPase 3)
-0.96	inactive	MAF1 (MAF1 negative regulator of RNA polymerase III)
-0.99	inactive	MAF1 (MAF1 negative regulator of RNA polymerase III)
-0.9	inactive	MAF1 (MAF1 negative regulator of RNA polymerase III)
0.23	inactive	MAF1 (MAF1 negative regulator of RNA polymerase III)
-1.38	inactive	CHRNA4 (cholinergic receptor nicotinic alpha 4 subunit)
-1.14	inactive	CHRNA4 (cholinergic receptor nicotinic alpha 4 subunit)
-1.57	active	CHRNA4 (cholinergic receptor nicotinic alpha 4 subunit)
-0.26	inactive	CHRNA4 (cholinergic receptor nicotinic alpha 4 subunit)
0.15	inactive	NEB (nebulin)
1.05	inactive	NEB (nebulin)
0.47	inactive	NEB (nebulin)
1.68	inactive	NEB (nebulin)
-0.26	inactive	TPO (thyroid peroxidase)
1.3	inactive	TPO (thyroid peroxidase)
-0.85	inactive	TPO (thyroid peroxidase)
-0.63	inactive	TPO (thyroid peroxidase)
0.05	inactive	METTL15 (methyltransferase 15, mitochondrial 12S rRNA N4-cytidine)
-1.1	inactive	METTL15 (methyltransferase 15, mitochondrial 12S rRNA N4-cytidine)
0.55	inactive	METTL15 (methyltransferase 15, mitochondrial 12S rRNA N4-cytidine)
0.48	inactive	METTL15 (methyltransferase 15, mitochondrial 12S rRNA N4-cytidine)
0.04	inactive	CPNE2 (copine 2)
0.54	inactive	CPNE2 (copine 2)
1.33	inactive	CPNE2 (copine 2)
-0.21	inactive	CPNE2 (copine 2)
-0.77	inactive	GH2 (growth hormone 2)
-0.81	inactive	GH2 (growth hormone 2)
-0.91	inactive	GH2 (growth hormone 2)
0.53	inactive	PDHA2 (pyruvate dehydrogenase E1 subunit alpha 2)
0.71	inactive	PDHA2 (pyruvate dehydrogenase E1 subunit alpha 2)
-0.17	inactive	PDHA2 (pyruvate dehydrogenase E1 subunit alpha 2)
0.09	inactive	PDHA2 (pyruvate dehydrogenase E1 subunit alpha 2)
-0.24	inactive	DNAJC15 (DnaJ heat shock protein family (Hsp40) member C15)
-1.1	inactive	DNAJC15 (DnaJ heat shock protein family (Hsp40) member C15)
-0.85	inactive	DNAJC15 (DnaJ heat shock protein family (Hsp40) member C15)
-0.84	inactive	DNAJC15 (DnaJ heat shock protein family (Hsp40) member C15)
-0.27	inactive	ARHGEF2 (Rho/Rac guanine nucleotide exchange factor 2)
-0.68	inactive	ARHGEF2 (Rho/Rac guanine nucleotide exchange factor 2)
-0.08	inactive	ARHGEF2 (Rho/Rac guanine nucleotide exchange factor 2)
0	inactive	ARHGEF2 (Rho/Rac guanine nucleotide exchange factor 2)
